According to patent US20020117175A1, “Thermal vaporizing device for drug delivery” (priority 2000, published 2002):

Key:
Type in all cases: physicochemical
[1] = TVD device simulation experiment, cold finger as Δ^9-THC trap (desorption from α-alumina particles, GC analysis); conditions: for Accounted For in Sample By GC Analysis: sample: spent α-alumina particles; for Accounted For in Sample By GC Analysis / Δ^9-THC Accounted For in Sample By GC Analysis: 5.00 mg starting content
[2] = Loading of Δ^9-THC onto α-alumina particles: loading amount and distribution by GC; conditions: α-alumina particles (100 mesh), loaded from ethanolic solution
[3] = Thermo-gravimetric analysis (TGA) desorption experiment

Compound	Accounted For in Sample By GC Analysis [1]	Δ^9-THC loading amount [2] [mg per 100 mg α-Alumina]	Material Balance (percent) ([3]; TGA experiment, relative to 3.25 mg starting content)	Δ^9-THC Accounted For in Sample By GC Analysis ([3]; sample: condensate collected on the lid of the TGA sample chamber, 3.25 mg starting content, 350° C. for 10 minutes) [µg]	Material Balance (percent) ([1]; cold finger trap, relative to 5.00 mg starting content)	Δ^9-THC Accounted For in Sample By GC Analysis ([1]; sample: cloth filter-bottom)	Δ^9-THC Accounted For in Sample By GC Analysis ([1]; sample: cloth filter-top)	Δ^9-THC Accounted For in Sample By GC Analysis ([1]; sample: cold finger, about 350-400° C. for about 15 min)	Δ^9-THC Accounted For in Sample By GC Analysis ([1]; sample: glass tube)
CCCCCc1cc(O)c2c(c1)OC(C)(C)c1ccc(C)cc1-2 [Cannabinol, cannabinol]	3.92 μg: Cannabinol	–	–	–	–	–	–	–	–
CCCCCc1cc(O)c2c(c1)OC(C)(C)[C@@H]1CCC(C)=C[C@@H]21 [Δ^9-THC, delta-9-tetrahydrocannabinol]	84.21 μg: Δ^9-THC	0.85	(92.3%)	254.94	(92.9%)	0 μg: Δ^9-THC	157.30 μg: Δ^9-THC	0 μg: Δ^9-THC	112.15 μg: Δ^9-THC
